Data published in patent publication US12234247B2, “Heterocyclic compound and harmful arthropod-controlling composition containing same” (SUMITOMO CHEMICAL COMPANY, LIMITED, priority 2019, dated 2025).
Some entries share one result that the patent states for a list of compounds. At least one compound was matched to its structure with a doubt left.

Tests used:
[1] = test system: cotton aphids (Aphis gossypil); experiment: Test method 1: foliar spray on cucumber seedlings infested with cotton aphids; type: in vivo; conditions: 50 ppm, spray 10 mL/seedling, counted 5 days after spraying, 25° C.
Description: Next, Test Examples are used to show effects of the Present compounds on harmful arthropods. In the following Test Examples, the tests were carried out at 25° C. […] Cucumber (Cucumis sativus) seedlings (on the developmental stage of the second true leaf) are planted in a container and approximately 30 cotton aphids (Aphis gossypil) (all stages of life) are released onto the cucumber seedlings. After 1 day, each of said diluted solutions is sprayed into the seedlings in a ratio of 10 mL/seedling. After additional 5 days, the number of the surviving insects is examined and the controlling value is calculated by the following equation. Controlling value (%)={1-(Cb×Tai)/(Cai×Tb)}×100 wherein the symbols in the equation represent the following meanings. • Cb: Number of the test insects in non-treated area; • Cai: Number of the surviving insects at the time of the investigation in non-treated area; • Tb: Number of the test insects in treated area; • Tai: Number of the surviving insects at the time of the investigation in treated area; Here, the “non-treated area” represents an area where the same treatment procedure as that of the treated area is done except for not using each test compound.

[2] = test system: cotton aphids (Aphis gossypii); experiment: Test method 2: irrigation into the plant foot of cucumber seedlings, cotton aphids released after 7 days; type: in vivo; conditions: 250 ppm, irrigation 5 mL/seedlings, counted after additional 6 days, 25° C.

Row | SMILES | controlling value [1] [%] | controlling value [2] [%]
1 | CCOc1ccc2nc(-n3nc4ccc(C(F)(F)F)cn4c3=O)c(S(=O)(=O)CC)n2c1 [compound 14] | ≥ 90 | –
2 | CCS(=O)(=O)c1c(-n2nc3ccc(C(F)(F)F)cn3c2=O)nc2ccc(I)cn12 [compound 19] | ≥ 90 | ≥ 90
3 | CCS(=O)(=O)c1c(-n2nc3ccc(C(F)(F)F)cn3c2=O)nc2ccc(-c3ccc(F)cc3)cn12 [compound 17] | ≥ 90 | –
4 | CCS(=O)(=O)c1c(-n2c(=O)c3cc(C(F)(F)F)cnc3n2C)nc2ccc(C(F)(F)F)cn12 [compound 4] | ≥ 90 | ≥ 90
5 | C=C(C)c1ccc2nc(-n3nc4ccc(C(F)(F)F)cn4c3=O)c(S(=O)(=O)CC)n2c1 [compound 15] | ≥ 90 | –
6 | CCS(=O)(=O)c1c(-n2nc3ccc(C(F)(F)F)cn3c2=O)nc2ccc(C(F)(F)F)cn12 [compound 2] | ≥ 90 | ≥ 90
7 | CCS(=O)(=O)c1c(-n2nc3ccc(C(F)(F)F)cn3c2=O)nc2ccc(C3CC3)cn12 [compound 16] | ≥ 90 | –
8 | CCS(=O)(=O)c1c(-n2nc3ccc(C(F)(F)F)cn3c2=O)nc2cc(Br)ccn12 [compound 11] | ≥ 90 | –
9 | CCS(=O)(=O)c1c(-n2nc3ccc(C(F)(F)F)cn3c2=O)nc2cc(C(F)(F)F)ccn12 [compound 8] | ≥ 90 | ≥ 90
10 | CCS(=O)(=O)c1c(-n2nc3ccc(C(F)(F)F)cn3c2=O)nc2ccc(Br)cn12 [compound 5] | ≥ 90 | ≥ 90
11 | CCS(=O)(=O)c1c(-n2nc3ccc(C(F)(F)F)cn3c2=O)nc2ccccn12 [compound 18] | ≥ 90 | –
12 | CCS(=O)(=O)c1c(-n2nc3ccc(C(F)(F)F)cn3c2=O)nc2ccc(Cl)cn12 [compound 10] | ≥ 90 | –
